The other results are listed elsewhere or left out. Most values come without repeats; read them as rough.
Biological target: T1, NSUN6 (UniProt Q8TEA1)
T1 sequence: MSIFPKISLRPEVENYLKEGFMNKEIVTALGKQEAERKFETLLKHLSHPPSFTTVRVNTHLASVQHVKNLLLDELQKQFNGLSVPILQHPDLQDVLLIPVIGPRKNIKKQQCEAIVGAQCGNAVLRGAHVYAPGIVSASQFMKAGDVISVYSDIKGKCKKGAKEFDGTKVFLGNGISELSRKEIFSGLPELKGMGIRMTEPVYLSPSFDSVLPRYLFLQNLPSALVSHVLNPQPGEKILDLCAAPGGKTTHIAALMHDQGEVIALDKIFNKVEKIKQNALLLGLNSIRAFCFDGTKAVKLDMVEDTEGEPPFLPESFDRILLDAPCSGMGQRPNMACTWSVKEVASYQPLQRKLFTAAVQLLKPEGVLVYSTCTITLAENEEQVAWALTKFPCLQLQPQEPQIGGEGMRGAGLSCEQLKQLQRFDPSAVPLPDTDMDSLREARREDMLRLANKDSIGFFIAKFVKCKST
Test: m5C methylation level at the target C (C/(C+U) bisulfite reads) (fraction); higher = more methylation by NSUN6; extreme values may be limits of the assay
Settings: HEK293T (wild-type)
Procedure: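 High-throughput mutagenesis reporter. About 140 bp oligo-pool variants of four natural Type II m5C substrates (substrate #1 chr15:91425541; #2 RAB15 3'UTR chr14:65413377; #3 SULT2A1 5'UTR chr19:48389569; #4 NAAA CDS chr4:76857361) were cloned as 3'UTR elements of psiCHECK-2 luciferase and transfected into wild-type HEK293T cells. Total RNA was taken 48 h later and m5C level was measured by targeted bisulfite sequencing as C/(C+U) reads at the m5C site (one library).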

[1] = parent substrate: substrate #1 (main figure)

Sequence	m5C methylation level at the target C [1]	m5C methylation level at the target C (parent substrate: substrate #2)	m5C methylation level at the target C (parent substrate: substrate #3)	m5C methylation level at the target C (parent substrate: substrate #4)
CCCUAU	0	0	0.000696	0.00103
UCCCAA	0.000524	0	0	0.00145
UCUCAU	0	0	0	0.00148
UCCUUU	0	0	0.00174	0.00066
ACUUAC	0	0	0.000724	0.00103
CCUCAU	0	0	0	0
CCUCUA	0.156	0.0223	0.116	0.0279
CCUAAA	0.00143	0.00414	0	0
GCUACU	0.00263	0.00818	0.000419	0.000624
GCCAUA	0.00081	0.00131	0	0.00172
CCUGAA	0.00767	0.00416	0.00303	0.000623
UCCGGU	0	0	0	0.00339
GCCUCU	0.00298	0.00199	0.000761	0.00303
UCACUU	0.000781	0.0025	0.0134	0.00345
GCAGCA	0.00134	0	0.00264	0
ACCUGA	0.000746	0.00773	0	0.00124
UCAACG	0.00212	0.00112	0.0035	0
ACAGCU	0	0	0	0
CCACCA	0	0	0.000409	0.00281
ACUAGG	0.00408	0	0.00289	0
CCCUUU	0	0	0.000804	0.00317
CCCCUA	0	0.00207	0.00127	0.00225
GCGUAU	0.00241	0.00124	0.000917	0.00202
CCUGGU	0.000979	0	0.00234	0.000747
UCCCGA	0.00102	0.00134	0.000828	0

Sequence	m5C methylation level at the target C [1]	m5C methylation level at the target C (parent substrate: substrate #2)	m5C methylation level at the target C (parent substrate: substrate #3)	m5C methylation level at the target C (parent substrate: substrate #4)
ACCAGC	0.00112	0.000666	0.000377	0.000521
CCAUAC	0	0	0	0.00207
ACUGGU	0	0	0.00331	0.0056
ACCGUU	0.000676	0	0.00094	0.00541
CCACGC	0	0	0.000836	0.000458
CCGGAG	0.0113	0.00396	0.00307	0.00435
GCCACG	0	0.00177	0.00288	0.000752
UCCAGG	0.00143	0	0.00197	0.00177
GCGAGU	0.00352	0.00209	0.00441	0
UCACUC	0.000335	0	0.000747	0.00985
GCAUCA	0.00184	0	0.00111	0
ACCAUG	0	0.00169	0.000477	0.0013
ACCUUU	0.000693	0	0.00349	0.000902
GCUCGC	0.00485	0.0039	0.00185	0.00122
GCUAGC	0.00189	0.00274	0.00181	0.000635
UCCGAG	0.000941	0.00411	0.000904	0.000912
GCCGAA	0.000749	0.00239	0.00274	0
UCUUCC	0.00121	0	0	0.00102
ACGCGA	0.00521	0.00378	0.000708	0.00162
UCGUCG	0.000962	0.00252	0.00107	0.000827
ACUACA	0.000699	0	0.000611	0.00119
ACUAGA	0.00601	0.00452	0	0.000951
ACGUCA	0.00252	0	0.00226	0
ACCACU	0.0153	0	0.00502	0
GCUAAU	0.000998	0.0192	0.00281	0.00423

Sequence	m5C methylation level at the target C [1]	m5C methylation level at the target C (parent substrate: substrate #2)	m5C methylation level at the target C (parent substrate: substrate #3)	m5C methylation level at the target C (parent substrate: substrate #4)
GCGAAA	0.00535	0.00455	0	0.0037
UCCGUA	0.00079	0.000933	0.000471	0.00126
UCGGAG	0.00109	0.000547	0.00199	0.000988
CCGAGG	0	0	0	0
CCGGGA	0.00183	0	0.00133	0.00375
GCGCAA	0.000666	0.00104	0.0038	0.0125
CCCGUU	0	0.0046	0	0
ACCCGA	0.00219	0.000708	0.000416	0.000855
UCCUAA	0.000488	0.00378	0.00128	0
UCAGGG	0	0	0.00172	0
ACCCGU	0.00219	0	0	0.00207
UCACCA	0.000927	0	0.00116	0.0108
GCUGGC	0.00258	0.00363	0.000364	0.00252
UCCAGU	0	0.00122	0.00132	0.000985
GCUGGA	0	0.00185	0.000962	0.0014
UCGAUU	0.00116	0	0.0014	0.00197
UCCUAG	0	0.00178	0.000658	0.00491
CCCAGC	0.00305	0	0	0.00061
GCCGCC	0.0024	0.00225	0.000426	0.00497
ACCAGG	0.00143	0.000866	0.00176	0.00398
ACUCGA	0.0254	0.00173	0.0384	0.00725
CCUGUC	0.000378	0	0.00176	0.00101
UCUAGG	0.000624	0	0.0016	0.000686
GCGCUC	0	0.00279	0.00227	0.0112
GCGGGC	0.0011	0	0.00127	0.000443

Sequence	m5C methylation level at the target C [1]	m5C methylation level at the target C (parent substrate: substrate #2)	m5C methylation level at the target C (parent substrate: substrate #3)	m5C methylation level at the target C (parent substrate: substrate #4)
CCGCUG	0.00216	0.00245	0.00415	0.000412
CCGAGC	0.00708	0.00272	0.00225	0
ACGUGC	0.0095	0	0.000528	0.000763
ACUAUA	0.0013	0.000576	0.000576	0.000634
ACUGGA	0.00129	0	0.00113	0.00247
ACGGCC	0.00176	0.000805	0	0
ACACCU	0	0.00212	0	0
CCAAAU	0	0	0.00385	0.000636
GCCAGU	0.002	0.00123	0.000395	0
GCCAAC	0.000887	0.00199	0	0.000894
ACAGAA	0.00194	0	0.00171	0
ACGCUA	0.00489	0.0015	0.00131	0.00122
GCUGAU	0.00134	0.000962	0.00129	0.000949
UCAAGA	0	0.00785	0	0
CCUAUC	0	0.00146	0.00151	0
GCGGGU	0.00158	0	0.00133	0
CCAACG	0	0.000925	0.00105	0
CCGAAG	0.00482	0.00308	0	0.00176
UCCGAU	0.000472	0.0119	0.00269	0.00131
CCUUCC	0.00104	0.00178	0	0.00111
CCCUCC	0.00216	0	0	0
GCCAAA	0.00343	0	0.000685	0
GCCCAG	0.000922	0.00228	0.000438	0.00193
ACAUUG	0.000697	0.00849	0	0
CCAGAU	0.00125	0.0171	0	0.00241

Sequence	m5C methylation level at the target C [1]	m5C methylation level at the target C (parent substrate: substrate #2)	m5C methylation level at the target C (parent substrate: substrate #3)	m5C methylation level at the target C (parent substrate: substrate #4)
CCCACU	0	0.0016	0.000591	0
UCUUAC	0.000589	0	0	0.000463
GCAAUA	0.000869	0.00142	0.00265	0.00152
GCGAAG	0.00247	0	0.000736	0.00256
ACAAAU	0	0	0	0.00057
CCUGCU	0.00334	0.000935	0	0.00182
CCAUCU	0	0	0.000904	0
UCGUAG	0.0093	0.00307	0.000406	0.00151
GCUCCU	0.000962	0.00248	0.0025	0.00224
ACAAGA	0.000428	0	0.00526	0
CCACUU	0	0	0.00751	0
CCAUUA	0	0.00963	0	0.000689
CCUUGA	0	0.00217	0	0.00127
ACUCCG	0.00144	0.00253	0.00617	0
UCUUUU	0	0.00147	0	0
GCAUUG	0	0	0.00153	0
GCGGAC	0.0035	0.00211	0.000495	0.000467
CCUGUG	0.000846	0	0.00228	0.00407
UCCAUU	0.00399	0.00519	0.00039	0.000359
CCUGGG	0.00225	0	0.000354	0.000734
UCUAAC	0	0.0013	0.00102	0
GCCAUU	0.000741	0	0.00427	0
UCGAGU	0	0	0.000952	0
UCCCUU	0	0.0021	0.00151	0.00156
GCGUUA	0.000621	0.00533	0.00322	0.00688

Sequence	m5C methylation level at the target C [1]	m5C methylation level at the target C (parent substrate: substrate #2)	m5C methylation level at the target C (parent substrate: substrate #3)	m5C methylation level at the target C (parent substrate: substrate #4)
GCGCCG	0.00273	0.000781	0.00222	0.00755
GCAAAC	0.00263	0.000903	0.000619	0.00984
UCGGGG	0.00263	0	0	0.00534
ACCUCU	0	0.00265	0.000504	0.00137
ACAGAG	0.0106	0.00335	0	0
CCGCCA	0.00205	0	0.00105	0.00189
GCCCUA	0	0	0.00594	0.00339
GCCCGG	0	0	0.0035	0.0027
GCUCGA	0.00911	0	0.00132	0.000867
UCUCCG	0.00046	0	0.00205	0.00214
GCAUUU	0.00159	0.0145	0.00156	0
CCAGAG	0.00573	0	0.00229	0
ACGUAU	0	0	0.00198	0.00413
UCGGCG	0.000866	0.00481	0.00289	0
CCGGUC	0	0.00507	0.00983	0
GCCGAC	0.000828	0.000733	0.00501	0.000824
CCGAUG	0	0	0.000586	0.00371
GCCCCC	0.00286	0.00461	0.0011	0.00106
ACCCAA	0.000706	0.00248	0	0
ACCCUA	0.000595	0.0128	0.00815	0.00296

Quoted at random: three records from the list
Sequence	m5C methylation level at the target C [1]	m5C methylation level at the target C (parent substrate: substrate #2)	m5C methylation level at the target C (parent substrate: substrate #3)	m5C methylation level at the target C (parent substrate: substrate #4)
UCGGGG	0.00263	0	0	0.00534
ACCCUA	0.000595	0.0128	0.00815	0.00296
CCGCCA	0.00205	0	0.00105	0.00189

As a working copy, part of the list above.
Sequence	m5C methylation level at the target C [1]	m5C methylation level at the target C (parent substrate: substrate #2)	m5C methylation level at the target C (parent substrate: substrate #3)	m5C methylation level at the target C (parent substrate: substrate #4)
ACCAGC	0.00112	0.000666	0.000377	0.000521
CCAUAC	0	0	0	0.00207
